Reference: PMC7862700
The entries are a selection whose mix differs from that of the whole data set. For part of these data: At the low end of the ranking the order means little. The list shows a part of the results. For part of these data: The source does not settle which construct or isoform was used.

The chains behind the UniProt entries cited, without tags or fusion partners. Where a name states a change or a piece, a line headed by the entry shows the natural chain unless it says otherwise.
UniProt P32519: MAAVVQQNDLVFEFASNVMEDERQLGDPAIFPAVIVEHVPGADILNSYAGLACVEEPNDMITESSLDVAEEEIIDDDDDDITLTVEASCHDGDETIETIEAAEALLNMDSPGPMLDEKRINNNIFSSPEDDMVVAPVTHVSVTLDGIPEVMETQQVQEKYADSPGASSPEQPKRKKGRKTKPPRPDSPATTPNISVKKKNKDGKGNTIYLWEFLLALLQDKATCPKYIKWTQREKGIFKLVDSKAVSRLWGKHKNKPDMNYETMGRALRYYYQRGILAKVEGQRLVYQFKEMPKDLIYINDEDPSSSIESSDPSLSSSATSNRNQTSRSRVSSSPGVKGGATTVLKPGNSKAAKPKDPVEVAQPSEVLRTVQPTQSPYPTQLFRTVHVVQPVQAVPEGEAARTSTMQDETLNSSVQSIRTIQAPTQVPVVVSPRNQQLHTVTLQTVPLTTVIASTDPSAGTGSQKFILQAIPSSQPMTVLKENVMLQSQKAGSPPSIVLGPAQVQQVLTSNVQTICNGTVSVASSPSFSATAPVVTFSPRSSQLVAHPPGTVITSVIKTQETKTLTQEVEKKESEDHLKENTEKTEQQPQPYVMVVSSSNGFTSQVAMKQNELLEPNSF
UniProt P50549: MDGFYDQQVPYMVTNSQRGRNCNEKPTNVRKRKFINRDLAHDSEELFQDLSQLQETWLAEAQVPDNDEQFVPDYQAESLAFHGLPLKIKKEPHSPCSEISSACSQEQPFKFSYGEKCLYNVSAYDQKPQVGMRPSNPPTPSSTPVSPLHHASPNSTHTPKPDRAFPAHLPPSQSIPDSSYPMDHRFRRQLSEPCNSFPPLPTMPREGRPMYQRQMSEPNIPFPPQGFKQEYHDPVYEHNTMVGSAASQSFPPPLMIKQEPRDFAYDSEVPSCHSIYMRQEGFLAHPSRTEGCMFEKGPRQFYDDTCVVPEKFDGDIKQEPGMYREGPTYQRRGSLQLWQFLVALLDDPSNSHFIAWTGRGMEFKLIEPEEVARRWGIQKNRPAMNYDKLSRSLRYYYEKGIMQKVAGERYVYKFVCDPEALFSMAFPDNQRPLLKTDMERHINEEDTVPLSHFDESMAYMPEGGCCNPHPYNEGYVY

Key:
Test in all cases: DAPPL (digital affinity profiling via proximity ligation, sequencing)
Details in all cases: 10 mM Tris-HCl pH 7.5, 50 mM NaCl, 1 mM DTT, 4% glycerol, room temperature, 30 min; GST-TFs on glutathione beads, 16-mer random dsDNA library, 0.1% …; high values mean tight binding; double strand, one strand shown; scale: fold enrichment (6-mer frequency, TF over GST control)
[1] = biological target: T1, ERG (UniProt P11308)
T1 sequence: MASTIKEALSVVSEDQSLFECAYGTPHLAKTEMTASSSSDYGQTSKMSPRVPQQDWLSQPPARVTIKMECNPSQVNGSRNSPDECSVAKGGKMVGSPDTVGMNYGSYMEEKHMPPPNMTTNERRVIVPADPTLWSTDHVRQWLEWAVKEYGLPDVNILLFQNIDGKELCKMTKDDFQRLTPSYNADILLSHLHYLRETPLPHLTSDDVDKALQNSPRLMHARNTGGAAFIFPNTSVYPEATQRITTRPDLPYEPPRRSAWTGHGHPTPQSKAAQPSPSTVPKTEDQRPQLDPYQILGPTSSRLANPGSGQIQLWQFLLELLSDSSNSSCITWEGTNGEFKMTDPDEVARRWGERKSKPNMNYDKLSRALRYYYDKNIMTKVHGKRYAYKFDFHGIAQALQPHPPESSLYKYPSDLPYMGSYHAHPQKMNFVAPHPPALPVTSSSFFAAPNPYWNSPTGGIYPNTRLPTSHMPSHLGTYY

[2] = biological target: ELF1 (UniProt P32519)
[3] = biological target: T2, ELK4 (UniProt P28324-2)
T2 sequence: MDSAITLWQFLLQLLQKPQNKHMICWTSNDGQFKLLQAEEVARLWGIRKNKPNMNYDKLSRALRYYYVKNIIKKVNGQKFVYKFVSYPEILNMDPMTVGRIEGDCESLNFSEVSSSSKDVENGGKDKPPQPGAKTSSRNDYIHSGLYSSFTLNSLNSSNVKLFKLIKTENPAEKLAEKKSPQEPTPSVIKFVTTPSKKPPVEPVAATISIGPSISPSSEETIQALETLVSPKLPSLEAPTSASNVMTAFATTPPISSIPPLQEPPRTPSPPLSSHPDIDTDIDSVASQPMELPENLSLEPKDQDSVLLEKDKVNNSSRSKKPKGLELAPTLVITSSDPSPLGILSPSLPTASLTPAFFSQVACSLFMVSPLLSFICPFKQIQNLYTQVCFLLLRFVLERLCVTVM

[4] = biological target: T3, ETV4 (UniProt P43268)
T3 sequence: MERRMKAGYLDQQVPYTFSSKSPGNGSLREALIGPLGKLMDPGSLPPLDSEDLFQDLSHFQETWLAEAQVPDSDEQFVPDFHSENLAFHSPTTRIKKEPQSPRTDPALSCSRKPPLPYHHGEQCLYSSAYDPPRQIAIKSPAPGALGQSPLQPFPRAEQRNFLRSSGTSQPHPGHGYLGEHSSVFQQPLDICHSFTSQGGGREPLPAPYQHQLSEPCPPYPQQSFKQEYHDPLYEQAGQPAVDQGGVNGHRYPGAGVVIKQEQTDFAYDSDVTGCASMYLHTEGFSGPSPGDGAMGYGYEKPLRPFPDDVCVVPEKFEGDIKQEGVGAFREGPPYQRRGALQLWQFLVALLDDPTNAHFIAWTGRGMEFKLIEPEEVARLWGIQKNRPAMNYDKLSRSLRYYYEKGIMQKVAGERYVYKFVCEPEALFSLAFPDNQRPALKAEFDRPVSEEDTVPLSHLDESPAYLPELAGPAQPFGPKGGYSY

[5] = biological target: ETV1 (UniProt P50549)
[6] = biological target: T4, ERF (UniProt P50548)
T4 sequence: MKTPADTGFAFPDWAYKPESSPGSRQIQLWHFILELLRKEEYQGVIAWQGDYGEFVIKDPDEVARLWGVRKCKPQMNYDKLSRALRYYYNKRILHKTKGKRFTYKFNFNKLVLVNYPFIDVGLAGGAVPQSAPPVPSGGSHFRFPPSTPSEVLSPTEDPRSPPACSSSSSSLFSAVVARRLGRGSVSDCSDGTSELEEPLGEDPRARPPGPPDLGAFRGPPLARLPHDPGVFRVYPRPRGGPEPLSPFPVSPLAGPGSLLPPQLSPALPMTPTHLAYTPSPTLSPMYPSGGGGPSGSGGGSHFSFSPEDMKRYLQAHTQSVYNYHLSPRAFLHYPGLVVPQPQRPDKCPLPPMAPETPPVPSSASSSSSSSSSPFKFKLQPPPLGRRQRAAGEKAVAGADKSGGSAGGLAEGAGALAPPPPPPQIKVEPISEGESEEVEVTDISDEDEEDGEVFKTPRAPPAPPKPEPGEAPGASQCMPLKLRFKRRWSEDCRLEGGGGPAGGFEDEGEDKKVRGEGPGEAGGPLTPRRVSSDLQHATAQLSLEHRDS

AGGATC
binding signal [1]: 0.876 | binding signal [2]: 0.867 | binding signal [3]: 0.819 | binding signal [4]: 0.858 | binding signal [5]: 0.929 | binding signal [6]: 0.928

GATGTG
binding signal [1]: 0.945 | binding signal [2]: 0.896 | binding signal [3]: 0.906 | binding signal [4]: 0.963 | binding signal [5]: 0.955 | binding signal [6]: 0.856

AGGCAA
binding signal [1]: 0.728 | binding signal [2]: 0.735 | binding signal [3]: 0.738 | binding signal [4]: 0.712 | binding signal [5]: 0.745 | binding signal [6]: 0.617

AGACAC
binding signal [1]: 0.758 | binding signal [2]: 0.806 | binding signal [3]: 0.875 | binding signal [4]: 0.776 | binding signal [5]: 0.724 | binding signal [6]: 0.778

CCGGAG
binding signal [1]: 0.573 | binding signal [2]: 0.477 | binding signal [3]: 0.549 | binding signal [4]: 0.523 | binding signal [5]: 0.536 | binding signal [6]: 0.501

TTGTCG
binding signal [1]: 0.779 | binding signal [2]: 0.824 | binding signal [3]: 0.976 | binding signal [4]: 0.792 | binding signal [5]: 0.924 | binding signal [6]: 0.914

CAGACA
binding signal [1]: 0.841 | binding signal [2]: 0.789 | binding signal [3]: 0.912 | binding signal [4]: 0.804 | binding signal [5]: 0.763 | binding signal [6]: 0.811

GGTAAG
binding signal [1]: 0.771 | binding signal [2]: 0.725 | binding signal [3]: 0.777 | binding signal [4]: 0.711 | binding signal [5]: 0.802 | binding signal [6]: 0.818

AGCAGT
binding signal [1]: 0.719 | binding signal [2]: 0.749 | binding signal [3]: 0.681 | binding signal [4]: 0.736 | binding signal [5]: 0.743 | binding signal [6]: 0.788

GGGGGG
binding signal [1]: 0.645 | binding signal [2]: 0.571 | binding signal [3]: 0.571 | binding signal [4]: 0.539 | binding signal [5]: 0.619 | binding signal [6]: 0.741

TCGGCC
binding signal [1]: 0.741 | binding signal [2]: 0.715 | binding signal [3]: 0.774 | binding signal [4]: 0.794 | binding signal [5]: 0.693 | binding signal [6]: 0.768

AAGACG
binding signal [1]: 0.724 | binding signal [2]: 0.745 | binding signal [3]: 0.764 | binding signal [4]: 0.723 | binding signal [5]: 0.795 | binding signal [6]: 0.701

GAGTTT
binding signal [1]: 0.607 | binding signal [2]: 0.634 | binding signal [3]: 0.586 | binding signal [4]: 0.578 | binding signal [5]: 0.659 | binding signal [6]: 0.613

GGACGC
binding signal [1]: 0.399 | binding signal [2]: 0.395 | binding signal [3]: 0.367 | binding signal [4]: 0.412 | binding signal [5]: 0.37 | binding signal [6]: 0.405

AGGGCC
binding signal [1]: 0.927 | binding signal [2]: 0.94 | binding signal [3]: 1.1 | binding signal [4]: 0.893 | binding signal [5]: 0.859 | binding signal [6]: 0.923

GAGATT
binding signal [1]: 0.668 | binding signal [2]: 0.717 | binding signal [3]: 0.702 | binding signal [4]: 0.699 | binding signal [5]: 0.718 | binding signal [6]: 0.665

AATCGG
binding signal [1]: 0.546 | binding signal [2]: 0.534 | binding signal [3]: 0.572 | binding signal [4]: 0.594 | binding signal [5]: 0.536 | binding signal [6]: 0.561

GGCGCG
binding signal [1]: 0.669 | binding signal [2]: 0.678 | binding signal [3]: 0.763 | binding signal [4]: 0.675 | binding signal [5]: 0.654 | binding signal [6]: 0.634

GACCAG
binding signal [1]: 0.615 | binding signal [2]: 0.674 | binding signal [3]: 0.564 | binding signal [4]: 0.63 | binding signal [5]: 0.618 | binding signal [6]: 0.634

GGTCCG
binding signal [1]: 0.842 | binding signal [2]: 0.758 | binding signal [3]: 0.736 | binding signal [4]: 0.79 | binding signal [5]: 0.864 | binding signal [6]: 0.729

AGCCGT
binding signal [1]: 0.467 | binding signal [2]: 0.48 | binding signal [3]: 0.443 | binding signal [4]: 0.5 | binding signal [5]: 0.469 | binding signal [6]: 0.485

CGTCGT
binding signal [1]: 0.837 | binding signal [2]: 0.907 | binding signal [3]: 0.944 | binding signal [4]: 0.852 | binding signal [5]: 0.889 | binding signal [6]: 0.815

TGAGTT
binding signal [1]: 0.36 | binding signal [2]: 0.389 | binding signal [3]: 0.411 | binding signal [4]: 0.408 | binding signal [5]: 0.451 | binding signal [6]: 0.393

AGAGTG
binding signal [1]: 0.658 | binding signal [2]: 0.655 | binding signal [3]: 0.659 | binding signal [4]: 0.626 | binding signal [5]: 0.572 | binding signal [6]: 0.673

TAGGGA
binding signal [1]: 0.812 | binding signal [2]: 0.796 | binding signal [3]: 0.761 | binding signal [4]: 0.8 | binding signal [5]: 0.747 | binding signal [6]: 0.877

GTCAAG
binding signal [1]: 0.814 | binding signal [2]: 0.771 | binding signal [3]: 0.837 | binding signal [4]: 0.727 | binding signal [5]: 0.77 | binding signal [6]: 0.812

GGACCG
binding signal [1]: 0.912 | binding signal [2]: 0.851 | binding signal [3]: 0.854 | binding signal [4]: 0.891 | binding signal [5]: 0.84 | binding signal [6]: 0.784

ACAGGG
binding signal [1]: 0.85 | binding signal [2]: 0.761 | binding signal [3]: 0.715 | binding signal [4]: 0.791 | binding signal [5]: 0.751 | binding signal [6]: 0.848

GAGCCG
binding signal [1]: 0.41 | binding signal [2]: 0.436 | binding signal [3]: 0.372 | binding signal [4]: 0.447 | binding signal [5]: 0.403 | binding signal [6]: 0.433

GTCTGC
binding signal [1]: 0.88 | binding signal [2]: 0.901 | binding signal [3]: 0.887 | binding signal [4]: 0.966 | binding signal [5]: 0.891 | binding signal [6]: 0.899
